From the supplement of paper PMC8166895
Structures can show the parent of a compound that is named as a salt. This is one part of the list. Most values lie at the level of the controls, where differences are scatter.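 Differential scanning fluorimetry gave melting temperatures in a one-replicate pilot screen of a library of approved drugs plus clinical or known-target compounds. Hits increasing melting point at least 2 °C were the strongest stabilizers, while negative shifts signify destabilization.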

system: SARS-CoV-2 main protease (Mpro, nsp5); assay: thermal shift ΔTm of Mpro relative to plate average Tm; higher = stronger thermal stabilization of Mpro (binding); details: 10 µM; protein concentration 1 µM

SMILES	thermal shift ΔTm of Mpro [°C]
O=C(c1ccccc1)c1ccc2nc(NC(=O)c3csc(C4CCN(c5ncnc6ccsc56)CC4)n3)[nH]c2c1	-0.119
CCCCCCCC(=O)c1c(O)cc(O)cc1CC(=O)OCC [Cytosporone B]	-0.0475
CCS(=O)(=O)N1CCN(c2ccc(Nc3ncc(C(N)=O)c(NC4CC4)n3)cc2)CC1 [Cerdulatinib]	0.0981
CCS(=O)(=O)N1CCN(c2ccc(Nc3ncc(C(N)=O)c(NC4CC4)n3)cc2)CC1	-0.403
C[N+](C)(C)CC(O)CC(=O)[O-] (racemic) [DL-Carnitine HCl]	-0.144
CC(=O)NC(CC(C)C)C(=O)O (stereo unspecified) [Acetylleucine]	0.105
C[N+](C)(C)C[C@H](O)CC(=O)[O-] [L-carnitine]	0.189
Cn1cnc(=N)c2[nH]cnc21 [3-Methyladenine]	-0.0241
O=C(/C=C/c1cccnc1)NCCCCC1CCN(C(=O)c2ccccc2)CC1	0.143
NCCc1ccc(O)c(O)c1 [Dopamine HCl]	-1.03
COP(=O)(OC)OC=C(Cl)Cl [Dichlorvos]	0.0892
CC(C)C(Br)C(=O)NC(N)=O (stereo unspecified) [Bromisoval]	0.223
Cc1c(-c2ccc(-c3ccccc3F)cc2)nc2ccc(F)cc2c1C(=O)O [Brequinar]	0.034
FC(F)(F)Oc1ccc2nc(-c3ccc(OCCOCCOc4ccc(-c5nc6ccc(OC(F)(F)F)cc6[nH]5)nc4)cn3)[nH]c2c1	1.36
C=CC(=O)N[C@H]1CCOC[C@H]1Nc1ncc2cc(-c3c(Cl)c(OC)cc(OC)c3Cl)ccc2n1	-0.293
CN(Cc1cc(Br)cc(Br)c1N)C1CCCCC1 [Bromhexine HCl]	0.0267
C[C@H](CS)C(=O)N1CCC[C@H]1C(=O)O [Captopril]	0.0195
Cn1cnc2c(F)c(Nc3ccc(Br)cc3Cl)c(C(=O)NOCCO)cc21 [Selumetinib (AZD6244)]	0.144
Nc1nc(N)c2nc(-c3cccc(O)c3)c(-c3cccc(O)c3)nc2n1	0.407
O=S(=O)(NC1CCCCC1)c1ccc2c(c1)C(=NO)c1cc(S(=O)(=O)NC3CCCCC3)ccc1-2	0.123
COc1ccc(OCc2ccc(COc3c(Cl)cccc3Cl)cc2)c(Cl)c1 [pocapavir]	-0.0716
CN1CCN(C(=O)c2cc3cc(Cl)ccc3[nH]2)CC1	0.0389
COc1c2ccoc2c(OC[C@H]2OC2(C)C)c2oc(=O)ccc12 [Byakangelicol]	0.012
COC(=O)N[C@H](C(=O)N1CC2(CC2)C[C@H]1c1nc(-c2ccc3c(c2)C(F)(F)c2cc(-c4ccc5[nH]c([C@@H]6[C@H]7CC[C@H](C7)N6C(=O)[C@@H](NC(=O)OC)C(C)C)nc5c4)ccc2-3)c[nH]1)C(C)C [Ledipasvir (GS5885)]	0.248
COc1ccc(CNc2nc(N3CCC[C@H]3CO)ncc2C(=O)NCc2ncccn2)cc1Cl [Avanafil]	0.0404
N#CC(C#N)=Cc1ccc(O)c(O)c1	0.57

Already shown: entries from further up.
SMILES	thermal shift ΔTm of Mpro [°C]
O=C(c1ccccc1)c1ccc2nc(NC(=O)c3csc(C4CCN(c5ncnc6ccsc56)CC4)n3)[nH]c2c1	-0.119
CCCCCCCC(=O)c1c(O)cc(O)cc1CC(=O)OCC [Cytosporone B]	-0.0475
CCS(=O)(=O)N1CCN(c2ccc(Nc3ncc(C(N)=O)c(NC4CC4)n3)cc2)CC1 [Cerdulatinib]	0.0981
CCS(=O)(=O)N1CCN(c2ccc(Nc3ncc(C(N)=O)c(NC4CC4)n3)cc2)CC1	-0.403
C[N+](C)(C)CC(O)CC(=O)[O-] (racemic) [DL-Carnitine HCl]	-0.144
CC(=O)NC(CC(C)C)C(=O)O (stereo unspecified) [Acetylleucine]	0.105
C[N+](C)(C)C[C@H](O)CC(=O)[O-] [L-carnitine]	0.189
Cn1cnc(=N)c2[nH]cnc21 [3-Methyladenine]	-0.0241
O=C(/C=C/c1cccnc1)NCCCCC1CCN(C(=O)c2ccccc2)CC1	0.143
NCCc1ccc(O)c(O)c1 [Dopamine HCl]	-1.03
COP(=O)(OC)OC=C(Cl)Cl [Dichlorvos]	0.0892
CC(C)C(Br)C(=O)NC(N)=O (stereo unspecified) [Bromisoval]	0.223
Cc1c(-c2ccc(-c3ccccc3F)cc2)nc2ccc(F)cc2c1C(=O)O [Brequinar]	0.034
FC(F)(F)Oc1ccc2nc(-c3ccc(OCCOCCOc4ccc(-c5nc6ccc(OC(F)(F)F)cc6[nH]5)nc4)cn3)[nH]c2c1	1.36
C=CC(=O)N[C@H]1CCOC[C@H]1Nc1ncc2cc(-c3c(Cl)c(OC)cc(OC)c3Cl)ccc2n1	-0.293
CN(Cc1cc(Br)cc(Br)c1N)C1CCCCC1 [Bromhexine HCl]	0.0267
C[C@H](CS)C(=O)N1CCC[C@H]1C(=O)O [Captopril]	0.0195
Cn1cnc2c(F)c(Nc3ccc(Br)cc3Cl)c(C(=O)NOCCO)cc21 [Selumetinib (AZD6244)]	0.144
Nc1nc(N)c2nc(-c3cccc(O)c3)c(-c3cccc(O)c3)nc2n1	0.407
O=S(=O)(NC1CCCCC1)c1ccc2c(c1)C(=NO)c1cc(S(=O)(=O)NC3CCCCC3)ccc1-2	0.123
COc1ccc(OCc2ccc(COc3c(Cl)cccc3Cl)cc2)c(Cl)c1 [pocapavir]	-0.0716
CN1CCN(C(=O)c2cc3cc(Cl)ccc3[nH]2)CC1	0.0389

Remaining list, next part:

SMILES	thermal shift ΔTm of Mpro [°C]
O=C(O)COc1cccc(CN(Cc2ccc(-n3cccn3)cc2)S(=O)(=O)c2cccnc2)c1 [Taprenepag]	0.198
CC(=O)OCC(=O)[C@@]1(O)CC[C@H]2[C@@H]3CCC4=CC(=O)C=C[C@]4(C)[C@H]3[C@@H](O)C[C@@]21C [Prednisolone Acetate]	-0.0934
Cc1cccc(Cc2c[nH]cn2)c1C [Detomidine HCl]	0.125
CC[C@H](c1ccc(O)cc1)[C@@H](CC)c1ccc(O)cc1 [Hexestrol]	-0.211
Cc1c(Nc2ncccc2C(=O)O)cccc1C(F)(F)F [Flunixin Meglumin]	0.197
CC(ONC(=O)c1cc(C(F)(F)F)cc(C(F)(F)F)c1)C(=O)Nc1ccc(Cl)cc1 (stereo unspecified)	0.826
OC[C@@H](O)CN1CCN(c2ccccc2)CC1 [Levodropropizine]	-0.0269
N#CC1(c2ccc(NC(=O)c3cccnc3NCc3ccncc3)cc2)CCCC1 [Apatinib]	-0.224
C=C[C@H]1[C@H](O[C@@H]2O[C@H](CO)[C@@H](O)[C@H](O)[C@H]2O)OC=C(C(=O)OC)[C@H]1CCOC(=O)c1cc(O)c(O)c(O)c1 [Cornuside]	-1.14
NNC(=O)c1ccncc1 [Isoniazid]	0.0867
CC1(C)C=C(CN2C/C(=C\c3ccc(F)cc3)C(=O)/C(=C/c3ccc(F)cc3)C2)C(C)(C)N1O	-0.183
Cc1ccc(S(=O)(=O)OCC(=O)Nc2ccc(C(=O)O)c(O)c2)cc1	0.0928
C[C@H]1C[C@H]2[C@@H]3CCC4=CC(=O)C=C[C@]4(C)[C@H]3C(=O)C[C@]2(C)[C@@]1(O)C(=O)CO [Meprednisone]	-0.141
CCC(=O)OCC(=O)[C@@]1(OC(=O)CC)[C@@H](C)C[C@H]2[C@@H]3CCC4=CC(=O)C=C[C@]4(C)[C@@]3(F)[C@@H](O)C[C@@]21C [Betamethasone Dipropionate]	-0.209
O=C(Nc1ncc(SCCN2CCCC2)s1)[C@]1(c2ccc(S(=O)(=O)C3CC3)cc2)C[C@H]1C1CCCCC1	-0.266
O=C(O)CCCN1CCC(O[C@@H](c2ccc(Cl)cc2)c2ccccn2)CC1 [Bepotastine Besilate]	-0.0236
O=C(O)c1cccnc1 [Nicotinic Acid]	-0.0117
O=C(Oc1coc(CSc2ncccn2)cc1=O)c1ccc([N+](=O)[O-])cc1	-0.107
CC1=C(C(=O)O)N2C(=O)C(N)C2SC1 (stereo unspecified) [Cefalexine EP IMpurity B]	0.237
Cc1cc(=O)c(C(=O)N[C@@H](C(=O)N[C@@H]2C(=O)N3C(C(=O)O)=C(CSc4nnnn4C)CS[C@H]23)c2ccc(O)cc2)c[nH]1 [Cefpiramide acid]	0.0709
CCCCc1oc2ccccc2c1C(=O)c1cc(I)c(OCCN(CC)CC)c(I)c1 [Amiodarone HCl]	0.109
CC1(N2CCC(n3c([C@@H]4CCCNC4)nc4ccccc43)CC2)CCCCCCC1 [MCOPPB trihydrochlride]	0.249
CN1CCN(c2ccc3nc(-c4c(N)c5c(F)cccc5[nH]c4=O)[nH]c3c2)CC1 [Dovitinib (TKI-258, CHIR-258)]	0.0464
CN1CCN(c2ccc3nc(-c4c(N)c5c(F)cccc5[nH]c4=O)[nH]c3c2)CC1 [Dovitinib (TKI-258) Dilactic Acid]	0.351
CN1CCN(c2ccc3nc(-c4c(N)c5c(F)cccc5[nH]c4=O)[nH]c3c2)CC1 [Dovitinib (TKI258) Lactate]	-0.146
O=c1[nH]c(=O)n([C@H]2C[C@H](O)[C@@H](CO)O2)cc1I [Idoxuridine]	0.0622

SMILES	thermal shift ΔTm of Mpro [°C]
Cc1cccc(N(C)C(=S)Oc2ccc3ccccc3c2)c1 [Tolnaftate]	-0.00675
C=CCNC1=C2C[C@@H](C)C[C@H](OC)[C@H](O)[C@@H](C)/C=C(\C)[C@H](OC(N)=O)[C@@H](OC)/C=C\C=C(/C)C(=O)NC(=CC1=O)C2=O [17-AAG (Tanespimycin)]	-0.0332
COP(=O)(OC)C(O)C(Cl)(Cl)Cl (stereo unspecified) [Chlorophos]	0.0198
CCN1CCCC1CNC(=O)c1cc(S(N)(=O)=O)ccc1OC (stereo unspecified) [Sulpiride]	0.228
COc1ccc(-c2ccc3cc(C(=O)O)ccc3c2)cc1C12CC3CC(CC(C3)C1)C2 [Adapalene]	0.264
COc1cc2c(NC3CCN(CC4CCCCC4)CC3)nc(N3CCCN(C(C)C)CC3)nc2cc1OCCCN1CCCCC1	-0.162
Nc1cc(C(F)(F)F)c(-c2nc(N3CCOCC3)nc(N3CCOCC3)n2)cn1	0.0216
CC12CC3CC(C)(C1)CC(N)(C3)C2 [Memantine HCl]	0.0502
CN1C(C(=O)Nc2ccccn2)=C(O)c2sc(Cl)cc2S1(=O)=O [Lornoxicam]	0.144
Cc1ccc(CNc2ncnc3ccc(-c4ccc(CO)o4)cc23)o1	-0.0386
C/C(=N\NC(=O)c1cccc(S(=O)(=O)N2CCN(C)CC2)c1)c1cc(Cl)ccc1O [Seclidemstat]	0.0414
O=C(c1cc(C2CC2)on1)N(C1CCCCC1)C1CCCCC1	-0.0446
COc1ccc(-c2cc(=O)c3c(OC)c(OC)c(OC)c(OC)c3o2)cc1 [Tangeretin]	-0.105
CC(C)=CCC[C@](C)(O[C@@H]1O[C@H](CO[C@@H]2OC[C@@H](O)[C@H](O)[C@H]2O)[C@@H](O)[C@H](O)[C@H]1O)[C@H]1CC[C@]2(C)[C@@H]1[C@H](O)C[C@@H]1[C@@]3(C)CC[C@H](O[C@@H]4O[C@H](CO)[C@@H](O)[C@H](O)[C@H]4O)C(C)(C)[C@@H]3CC[C@]12C [Gynostemma Extract]	-0.467
O=C(O)c1ccc(C=C2SC(=S)N(c3cccc(C(F)(F)F)c3)C2=O)cc1	0.357
CC(C)c1nc(CN(C)C(=O)N[C@@H](CCN2CCOCC2)C(=O)N[C@H](CC[C@H](Cc2ccccc2)NC(=O)OCc2cncs2)Cc2ccccc2)cs1 [Cobicistat (GS-9350)]	-0.144
CN1CCC(c2c[nH]c3ccc(NC(=O)c4ccc(F)cc4)cc23)CC1	0.0329
CC(=O)SCC(CC(=O)c1ccc(C)cc1)C(=O)O (stereo unspecified) [Esonarimod]	-0.215
Cc1cccc(-c2nn3c(c2-c2ccnc4ccc(C(N)=O)cc24)CCC3)n1	-0.0948
O=c1n(Cl)c(=O)n(Cl)c(=O)n1Cl [Trichloroisocyanuric acid]	-0.103
O=C(Nc1cccnc1)N1CCC(Cc2cccc(Oc3ccc(C(F)(F)F)cn3)c2)CC1	0.0311
NC[C@H]1OB(O)c2c(OCCCO)cccc21 [Epetraborole hydrochloride]	0.12
NC(=O)c1cc(N2CC2)c([N+](=O)[O-])cc1[N+](=O)[O-] [Tretazicar]	-0.0205
Cc1cc(C)nc(NS(=O)(=O)c2ccc(NC(=S)NC(=O)COc3ccc(Br)cc3Cl)cc2)n1	0.197

Retrieved one by one from above, two records:
SMILES	thermal shift ΔTm of Mpro [°C]
COc1ccc(-c2cc(=O)c3c(OC)c(OC)c(OC)c(OC)c3o2)cc1 [Tangeretin]	-0.105
NC[C@H]1OB(O)c2c(OCCCO)cccc21 [Epetraborole hydrochloride]	0.12
